Laboratory results as given in US20260071233A1.
These are yes or no findings as the source states them, for the method shown. Some binding calls cover weakened binding; strength is not graded here.

Biological target: T1, Recombinant rat IFN-γ (rat) (UniProt P01581)
T1 sequence: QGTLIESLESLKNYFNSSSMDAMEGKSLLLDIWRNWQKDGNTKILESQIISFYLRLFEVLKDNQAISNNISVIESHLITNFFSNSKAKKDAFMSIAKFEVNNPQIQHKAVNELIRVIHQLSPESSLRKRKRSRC
Test: competitive ELISA, figure legend of FIG. 32A

## VACV encoded B8R in filtered supernatant from VACV IL-12 infected HeLa cells (from UniProt P21004 14-272)
  binding: binds
